Data reported in patent publication US20160168724A1, “POLYVINYLBUTYRAL COATING CONTAINING THIOL CORROSION INHIBITORS” (The Boeing Company, priority 2014, published 2016).

Test: Open circuit potential of PVB-coated panels (panel as working electrode)
Conditions: 5% NaCl-PBS

Sc1nnc(S)s1 [DMcT, 1,3,4-Thiadiazole-2,5-dithiol]
time for open circuit potential to reach steady state (0.5% (wt/wt) DMcT in spray-applied PVB coating, also printed as 14 h): 50 ks
time for open circuit potential to reach steady state (5% (wt/wt) DMcT in spray-applied PVB coating, also printed as 28 h): approximately 100 ks
